The subject of this series is MdbHLH93. Put plainly: EMSA. As to conditions: 24 C, 30 min, Beyotime EMSA/Gel-Shift Kit binding buffer (composition, salt and pH not given), biotin-labelled probe, recombinant protein, label: biotin. For orientation: In EMSA bound probe runs differently from free probe, usually more slowly.

The exact form of at least one protein or probe is not confirmed.

As to “GGGGGGGGTCCACGTGGGTCACCAAC (double strand) [MdSAG18 promoter probe]”, the binding result is reported as “binds”. In addition, the binding result (plus increasing MdABI5 (interaction partner): binding gradually enhanced) was “binds”.
